This experiment concerns the target TbUbL1-myc (C-terminally triple c-myc-tagged Tb927.11.4130) (Trypanosoma brucei) (UniProt Q386A3). The experiment is described as follows: affinity purification with mass spectrometry.

No constants are given. Whether binding was seen depends on the method and setting. Binding seen in cells or lysates may run through a third protein. A yes stands for co-enrichment or nearness to the bait. Other partners may have been found.

Consider “Tb927.10.780, a putative RING domain containing E3 ubiquitin ligase (from UniProt Q38CG2)”, for which the binding result was “binds”.

The record behind these values is publication doi:10.1101/2021.08.13.456187.
